# Test results taken from the supplement of paper PMC8728848.
# Some of the results follow.
# B1: Fap1 (Streptococcus parasanguis) (protein)
# chain: KATSKGTEEKQDSVRENLDKMISEAEVLNDMAARKLITLDAEQQLELMKSLVATQSQLEATKNLIGDPNATVADLQIAYTTLGNNTQALGNELIKLNPNGQIYAVLNNTEASRAATLRSTTTGTKTTFTISDFSNGGTQYYWAGGNANNLKNPISSISAVYDSATGKISWTVEYDPTTILKSPALKTLKTYTGIYIDTSSDSKLSTPTNVLIDGAATNPVTNFYGNGSKGIEYVSKGTTKGVTKHTITFDTAFSGRANDLADLEIKMLAATTLSDPHFYEDGSKGNYGRYNGQTAPYVIANDSGTAIGGYQVSGVNADSIPSDTT
# Experiments:
# Experiment in all cases: glycan array binding signal (z-score within array); higher = stronger binding
# Conditions in all cases: glycan notation: IUPAC condensed, linker removed
# [1] = target: Fuc(a1-2)[GalNAc(a1-3)]Gal(b1-4)[Fuc(a1-3)]GlcNAc
# How it was run: (§1)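 The binding signal is a Z-score computed within each array and averaged over linkers. Arrays of the same protein sequence at different concentrations or buffers were also averaged together. Data originate from 3228 arrays in the Consortium for Functional Glycomics database, kept only where the protein sequence was available.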
# [2] = target: Fuc(a1-2)[GalNAc(a1-4)]Gal(b1-4)GlcNAc
# How it was run: as §1
# [3] = target: Fuc(a1-2)[GalNAc(b1-3)]Gal
# How it was run: as §1
# Fuc(a1-3)GlcNAc = target: Fuc(a1-3)GlcNAc
# How it was run: as §1
# [4] = target: Fuc(a1-3)[Gal(b1-4)]Glc6S
# How it was run: as §1
# [5] = target: Fuc(a1-3)[Gal(b1-4)]GlcNAc
# How it was run: as §1
# [6] = target: Fuc(a1-3)[Gal(b1-4)]GlcNAc(b1-3)Gal(b1-3)[Fuc(a1-4)]GlcNAc
# How it was run: as §1
# [7] = target: Fuc(a1-3)[Gal(b1-4)]GlcNAc(b1-4)Gal(b1-4)[Fuc(a1-3)]GlcNAc
# How it was run: as §1
# [8] = target: Fuc(a1-3)[Gal(b1-4)]GlcNAc(b1-4)Gal(b1-4)[Fuc(a1-3)]GlcNAc(b1-4)Gal(b1-4)[Fuc(a1-3)]GlcNAc
# How it was run: as §1
# [9] = target: Fuc(a1-3)[Gal(b1-4)]GlcNAc6S
# How it was run: as §1
# [10] = target: Fuc(a1-3)[Gal3S(b1-4)]Glc6S
# How it was run: as §1
# [11] = target: Fuc(a1-3)[Gal3S(b1-4)]GlcNAc
# How it was run: as §1
# [12] = target: Fuc(a1-3)[Gal3S(b1-4)]GlcNAc6S
# How it was run: as §1
# [13] = target: Fuc(a1-3)[GalNAc(b1-4)]GlcNAc
# How it was run: as §1
# Fuc(a1-4)GlcNAc = target: Fuc(a1-4)GlcNAc
# How it was run: as §1
# Fuc(b1-3)GlcNAc = target: Fuc(b1-3)GlcNAc
# How it was run: as §1
# Gal(a1-2)Gal = target: Gal(a1-2)Gal
# How it was run: as §1
# Gal(a1-3)Gal = target: Gal(a1-3)Gal
# How it was run: as §1
# Gal(a1-3)Gal(b1-3)GlcNAc = target: Gal(a1-3)Gal(b1-3)GlcNAc
# How it was run: as §1
# Gal(a1-3)Gal(b1-4)Glc = target: Gal(a1-3)Gal(b1-4)Glc
# How it was run: as §1
# Gal(a1-3)Gal(b1-4)GlcNAc = target: Gal(a1-3)Gal(b1-4)GlcNAc
# How it was run: as §1
# [14] = target: Gal(a1-3)Gal(b1-4)[Fuc(a1-3)]GlcNAc
# How it was run: as §1
# Gal(a1-3)GalNAc = target: Gal(a1-3)GalNAc
# How it was run: as §1
# [15] = target: Gal(a1-3)[Gal(a1-4)]Gal(b1-4)GlcNAc
# How it was run: as §1
# Gal(a1-4)Gal(b1-4)Glc = target: Gal(a1-4)Gal(b1-4)Glc
# How it was run: as §1
# Gal(a1-4)Gal(b1-4)GlcNAc = target: Gal(a1-4)Gal(b1-4)GlcNAc
# How it was run: as §1
# Gal(a1-4)GlcNAc = target: Gal(a1-4)GlcNAc
# How it was run: as §1
# Gal(a1-6)Glc = target: Gal(a1-6)Glc
# How it was run: as §1
# Gal(b1-2)Gal = target: Gal(b1-2)Gal
# How it was run: as §1
# Gal(b1-3)Gal = target: Gal(b1-3)Gal
# How it was run: as §1
# Gal(b1-3)GalNAc = target: Gal(b1-3)GalNAc
# How it was run: as §1
# [16] = target: Gal(b1-3)GalNAc(b1-3)Gal(a1-4)Gal(b1-4)Glc
# How it was run: as §1
# [17] = target: Gal(b1-3)GalNAc(b1-4)Gal(b1-4)Glc
# How it was run: as §1
# [18] = target: Gal(b1-3)GalNAc(b1-4)[Neu5Ac(a2-3)]Gal(b1-4)Glc
# How it was run: as §1
# Gal(b1-3)GlcNAc = target: Gal(b1-3)GlcNAc
# How it was run: as §1
# [19] = target: Gal(b1-3)GlcNAc(b1-3)Gal(b1-3)GlcNAc
# How it was run: as §1
# [20] = target: Gal(b1-3)GlcNAc(b1-3)Gal(b1-4)Glc
# How it was run: as §1
binder,measurement,setting,value
B1,glycan array binding signal (z-score),[1],-0.31
same,glycan array binding signal (z-score),[2],0.312
same,glycan array binding signal (z-score),[3],0.067
same,glycan array binding signal (z-score),Fuc(a1-3)GlcNAc,0.245
same,glycan array binding signal (z-score),[4],-0.255
same,glycan array binding signal (z-score),[5],0.377
same,glycan array binding signal (z-score),[6],-0.293
same,glycan array binding signal (z-score),[7],0.909
same,glycan array binding signal (z-score),[8],0.074
same,glycan array binding signal (z-score),[9],-0.313
same,glycan array binding signal (z-score),[10],0.012
same,glycan array binding signal (z-score),[11],0.175
same,glycan array binding signal (z-score),[12],2.23
same,glycan array binding signal (z-score),[13],0.097
same,glycan array binding signal (z-score),Fuc(a1-4)GlcNAc,0.054
same,glycan array binding signal (z-score),Fuc(b1-3)GlcNAc,0.144
same,glycan array binding signal (z-score),Gal(a1-2)Gal,1.05
same,glycan array binding signal (z-score),Gal(a1-3)Gal,0.49
same,glycan array binding signal (z-score),Gal(a1-3)Gal(b1-3)GlcNAc,0.054
same,glycan array binding signal (z-score),Gal(a1-3)Gal(b1-4)Glc,0.803
same,glycan array binding signal (z-score),Gal(a1-3)Gal(b1-4)GlcNAc,0.194
same,glycan array binding signal (z-score),[14],0.09
same,glycan array binding signal (z-score),Gal(a1-3)GalNAc,0.025
same,glycan array binding signal (z-score),[15],0.144
same,glycan array binding signal (z-score),Gal(a1-4)Gal(b1-4)Glc,0.386
same,glycan array binding signal (z-score),Gal(a1-4)Gal(b1-4)GlcNAc,-0.093
same,glycan array binding signal (z-score),Gal(a1-4)GlcNAc,0.798
same,glycan array binding signal (z-score),Gal(a1-6)Glc,0.864
same,glycan array binding signal (z-score),Gal(b1-2)Gal,-0.828
same,glycan array binding signal (z-score),Gal(b1-3)Gal,-0.318
same,glycan array binding signal (z-score),Gal(b1-3)GalNAc,-0.24
same,glycan array binding signal (z-score),[16],-0.169
same,glycan array binding signal (z-score),[17],0.325
same,glycan array binding signal (z-score),[18],-0.471
same,glycan array binding signal (z-score),Gal(b1-3)GlcNAc,0.462
same,glycan array binding signal (z-score),[19],-0.86
same,glycan array binding signal (z-score),[20],-0.192

# A different layout for some results above:
binder	measurement	setting	value
B1	glycan array binding signal (z-score)	[11]	0.175
same	glycan array binding signal (z-score)	[15]	0.144
same	glycan array binding signal (z-score)	Gal(b1-2)Gal	-0.828
